PubChem BioAssay AID493014 (National Center for Advancing Translational Sciences (NCATS), 2011)
The list shows a part of the results. The main result of the screen is listed elsewhere. These columns were measured beside it and carry no call. Most of these compounds were active or inconclusive in the main read-out, so they are no random draw. The note in brackets gives the kind of curve behind each potency; many fits are weak.

Assay: qHTS Assay to Find Inhibitors of Chronic Active B-Cell Receptor Signaling
Settings: ABC-DLBCL IkBa-CBG/CBR reporter, luminescence ratio (green luciferase fused to IkBa over red control in TMD8 lymphoma cells), 4 h
Method in brief: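 Doxycycline induced both beetle luciferases in TMD8 lymphoma cells; IKK-driven degradation limits the IkappaBalpha-fused green signal, while red luminescence normalises for cell number and nonspecific effects. Compounds tested up to 46 uM, 4 hrs.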

[1] = measured here: CBR red luminescence, cell number
[2] = measured here: IkBa-CBG green luminescence

Compound	AC50 [1]	AC50 [2]
COc1ccc(NC(=O)NNC(=O)C(C)Oc2ccc(C(C)C)cc2)c(OC)c1 (stereo unspecified)	15.8 µM [falling, single point]	
CC(NC(=O)CSc1nc2ccccc2c(=O)n1CCCO)c1ccccc1 (stereo unspecified)	29.1 µM [falling, single point]	
COc1cc(NC(C)=O)c2ncccc2c1NC(C)=O	11.2 µM [falling, single point]	
COc1cccc(CC2(CO)CCN(S(=O)(=O)N(C)C)CC2)c1	31.6 µM [rising, partial curve, poor fit]	
CCOC(=O)N1CCN(C(=O)CSc2nc3c([nH]c4ccccc43)c(=O)n2CC)CC1	0.398 µM [falling, partial curve, poor fit]	
Cc1ccc(NS(=O)(=O)c2ccc3c(c2)oc(=O)n3C)cc1F	23.1 µM [falling, single point]	
CCOc1ccc(CSC(=N)N)cc1Cl	1.26 µM [falling, full curve, poor fit]	
Cc1ccc(C)n1CCN1CCN(C(=O)CC#N)CC1	15.8 µM [rising, partial curve, poor fit]	
CC(=O)N(Cc1cc(=O)[nH]c2ccccc12)c1ccccc1C	35.5 µM [rising, single point]	
O=[N+]([O-])c1ccc(NC(=S)NCCc2ccc(Cl)cc2)cc1	8.2 µM [falling, partial curve, poor fit]	
COc1cc(/C=C2\SC(=O)NC2=O)ccc1Oc1ccc([N+](=O)[O-])cc1[N+](=O)[O-]		12.6 µM [rising, partial curve, poor fit]
CCN(CC)S(=O)(=O)c1cc(Br)c(C)cc1OC	1.64 µM [rising, full curve, poor fit]	
Cc1noc(C)c1C(=O)NC1=NCCS1	35.5 µM [falling, single point]	
CCN1CCn2c1nc(N1CCOCC1)nc2=O	20.6 µM [rising, single point]	
COc1cc(C(=O)Nc2ccc(NC(=O)c3ccccc3)nc2)cc(OC)c1OC	25.1 µM [falling, single point]	
COc1ccc(CNC(=O)c2ccc3nc(-c4ccc(F)cc4)c(-c4ccc(F)cc4)nc3c2)cc1	35.5 µM [rising, single point]	
CC(C)OC(=O)CC(=O)CSc1nc2c(c(-c3cccs3)c1C#N)CCC2	32.6 µM [falling, single point]	25.9 µM [rising, partial curve, poor fit]
O=C(CSc1nc2ccccc2[nH]1)c1ccccc1F	12.6 µM [falling, single point]	
Cc1cc(C(=O)N/N=C/c2ccccc2Br)no1	10 µM [falling, partial curve, poor fit]	
Cc1ccc(-c2nc(N)n(C(=O)c3cccs3)n2)cc1	0.794 µM [falling, full curve, poor fit]	
CCCn1nnnc1SCC(=O)Nc1sc(C)c(C)c1C#N	35.5 µM [falling, single point]	

A portion from the list above, as a working copy:
Compound	AC50 [1]	AC50 [2]
COc1cccc(CC2(CO)CCN(S(=O)(=O)N(C)C)CC2)c1	31.6 µM [rising, partial curve, poor fit]	
CCOC(=O)N1CCN(C(=O)CSc2nc3c([nH]c4ccccc43)c(=O)n2CC)CC1	0.398 µM [falling, partial curve, poor fit]	
Cc1ccc(NS(=O)(=O)c2ccc3c(c2)oc(=O)n3C)cc1F	23.1 µM [falling, single point]	
CCOc1ccc(CSC(=N)N)cc1Cl	1.26 µM [falling, full curve, poor fit]	

Later entries:

Compound	AC50 [1]	AC50 [2]
COc1cccc(N2CCN(Cc3ncc(-c4ccccc4)o3)CC2)c1	7.08 µM [falling, partial curve]	
COC(=O)c1nn(-c2ccccc2)c(Sc2ccc(OC)cc2)c1/C=N/O	14.1 µM [falling, single point]	
COc1cccc(NC(=O)N2CCN(c3cccc(C)c3)C(C)C2)c1 (stereo unspecified)	10 µM [falling, partial curve]	
O=C(Nc1ccc(Br)cc1)c1cc([N+](=O)[O-])cc([N+](=O)[O-])c1	2 µM [rising, full curve, poor fit]	
COc1cc(NC(=O)c2ccc(OC)c([N+](=O)[O-])c2)ccc1NC(=O)c1cccs1	0.00651 µM [rising, full curve, poor fit]	
CN(C)S(=O)(=O)c1cccc(NC(=O)c2ccc(S(=O)(=O)N3CCCC3)cc2)c1	16.4 µM [falling, single point]	
CN1CCC(NC(=O)Nc2ccc(Br)cc2)CC1	2.82 µM [rising, full curve]	
O=S(=O)(c1cccs1)N1CCN(Cc2nc3ccccc3s2)CC1	29.1 µM [rising, single point]	
O=C(Nc1ccc(S(=O)(=O)N2CCOCC2)cc1)c1cccc([N+](=O)[O-])c1	2.82 µM [rising, full curve, poor fit]	
Fc1cc(F)c2nc(N3CCCCC3)sc2c1	15.8 µM [rising, partial curve, poor fit]	
Cc1c(C(=O)/C=C/N(C)C)nnn1-c1ccc(Cl)cc1C#N	11.2 µM [rising, single point]	
Cc1[nH]c2ccccc2c1C(=O)/C=C/c1ccccc1	35.5 µM [falling, single point]	
CC1(C)Cc2c(c(N3CCOCC3)nc3sc4c(NCc5ccco5)nnnc4c23)CS1	6.51 µM [falling, single point]	
CC(C)(C)c1cc(C(=O)NNc2cccc(Cl)c2)n(Cc2ccccc2)n1	25.1 µM [falling, single point]	
CSc1ncccc1C(=O)Nc1nc2ccc(S(C)(=O)=O)cc2s1	35.5 µM [falling, single point]	
Cc1oc2c(Cl)c(Cl)c(O)c(CN(C)C)c2c1C(=O)c1ccc(Cl)cc1	35.5 µM [falling, single point]	20 µM [rising, partial curve, poor fit]
Cc1cnc(NC(=O)CSc2nnc(-c3ccc(Cl)cc3Cl)n2N)s1	0.731 µM [falling, single point]	
COc1ccc(-c2cc(C(=O)Nc3c(C)n(C)n(-c4ccccc4)c3=O)no2)cc1OC	8.91 µM [rising, partial curve, poor fit]	
COc1cc(NC(=O)c2csc(N)n2)cc(C(=O)Nc2cccc(C(F)(F)F)c2)c1	35.5 µM [falling, single point]	
CCOc1ccc(NC(=O)Nc2ccc(Br)cn2)cc1	0.891 µM [rising, partial curve, poor fit]	
Cc1cc(NC(=O)CSc2nnc(-c3ccc(O)cc3)o2)no1	3.98 µM [falling, partial curve, poor fit]	

Compound	AC50 [1]	AC50 [2]
CCOc1ccc(S(=O)(=O)NCC2CCCO2)cc1NC(=O)c1ccccc1F (stereo unspecified)	14.1 µM [rising, single point]	
Cc1ccccc1C(=O)Nc1cc(S(=O)(=O)N2CCOCC2)ccc1N1CCN(C)CC1	29.1 µM [rising, single point]	
COc1ccc(CC(=O)Nc2ccc(-c3nc4ccccc4s3)c(C)c2)cc1OC	3.16 µM [rising, partial curve, poor fit]	
CCOc1ccc(S(=O)(=O)Nc2ccc(S(=O)(=O)Nc3cc(OC)ccc3OC)cc2)cc1	0.146 µM [falling, full curve, poor fit]	
COc1ccccc1N1CCN(C(=O)c2ccc(S(=O)(=O)N3CCCCCC3)cc2)CC1	6.51 µM [rising, single point]	
COc1ccc(C(=O)CN2C(=O)NC3(CCc4ccccc43)C2=O)c(OC)c1 (stereo unspecified)	20.6 µM [rising, single point]	
O=C(Nc1ccc([N+](=O)[O-])cc1)Nc1ccc(OC(F)F)c(Cl)c1	2.59 µM [rising, partial curve, poor fit]	
CC(=O)NC(CC(=O)OCC(=O)c1c(N)n(C)c(=O)n(C)c1=O)c1ccccc1 (stereo unspecified)		11.2 µM [rising, partial curve, poor fit]
O=C(Nc1ccc(F)cc1)Nc1sccc1-c1nc2ccccc2s1	35.5 µM [rising, partial curve, poor fit]	
CSc1ccc(C2Nc3cccc4cccc(c34)N2)cc1	7.94 µM [falling, partial curve, poor fit]	
CCOc1ccc(NC(=O)CN(C)C(=O)c2ccc(N3CCCC3)c([N+](=O)[O-])c2)cc1OCC	18.4 µM [rising, partial curve, poor fit]	
Cc1ccc(-c2nc3ncccc3o2)cc1NC(=O)c1cccs1	11.2 µM [falling, partial curve, poor fit]	
Cc1cc(C2N=C(N)Nc3nc4ccccc4n32)c(C)n1-c1ccccc1Cl (stereo unspecified)	22.4 µM [falling, single point]	
O=C(NCC1CCCO1)C(=O)N/N=C/c1ccccc1C(=O)O (stereo unspecified)	10 µM [falling, partial curve]	
CCOC(=O)c1sc(NC(=O)c2cc(-c3ccccc3C)nc3ccccc23)c(C#N)c1C	16.4 µM [falling, partial curve]	
CCOC(=O)N1CCN(C(=O)C2c3cc(OC)c(OC)cc3C(=O)N3CCc4ccccc4C23)CC1 (stereo unspecified)	2.59 µM [falling, partial curve, poor fit]	
CCOC(=O)c1ccc2c(c1)NCc1cccc(OC)c1O2	6.31 µM [falling, partial curve, poor fit]	
C/C(CC(=O)Nc1cc(C)ccn1)=N\NC(=O)C(=O)Nc1cccc(C)c1	16.4 µM [falling, partial curve]	
O=C1NC2=C(C(=O)CCC2)C(c2ccc3ncccc3c2)N1 (stereo unspecified)	14.6 µM [rising, partial curve, poor fit]	
CCOn1c(=O)c(-c2cccs2)[n+]([O-])c2ccccc21	9.2 µM [falling, partial curve, poor fit]	
O=C(O)CCCNc1cc(N2CCN(C(=O)c3ccco3)CC2)c2noc3c2c1C(=O)c1ccccc1-3	10 µM [falling, partial curve, poor fit]	12.6 µM [rising, partial curve, poor fit]
